# The entries are a selection whose mix differs from that of the whole data set. At the low end of the ranking the order means little.
# Protein sequences, listed by entry. Tags and fused reporters are not part of them. Lines headed by an entry give the natural chain unless they say otherwise; changes in a name come on top.
# UniProt Q9Y603: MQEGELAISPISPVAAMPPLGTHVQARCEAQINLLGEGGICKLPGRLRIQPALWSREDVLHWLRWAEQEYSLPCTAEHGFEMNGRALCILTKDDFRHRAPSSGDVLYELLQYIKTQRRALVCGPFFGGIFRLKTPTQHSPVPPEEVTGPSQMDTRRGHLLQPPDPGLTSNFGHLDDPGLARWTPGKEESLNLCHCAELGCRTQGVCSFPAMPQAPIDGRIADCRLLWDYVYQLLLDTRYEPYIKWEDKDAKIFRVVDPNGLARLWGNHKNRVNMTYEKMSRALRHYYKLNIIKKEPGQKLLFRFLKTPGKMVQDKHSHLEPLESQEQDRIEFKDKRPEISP
# UniProt P41212: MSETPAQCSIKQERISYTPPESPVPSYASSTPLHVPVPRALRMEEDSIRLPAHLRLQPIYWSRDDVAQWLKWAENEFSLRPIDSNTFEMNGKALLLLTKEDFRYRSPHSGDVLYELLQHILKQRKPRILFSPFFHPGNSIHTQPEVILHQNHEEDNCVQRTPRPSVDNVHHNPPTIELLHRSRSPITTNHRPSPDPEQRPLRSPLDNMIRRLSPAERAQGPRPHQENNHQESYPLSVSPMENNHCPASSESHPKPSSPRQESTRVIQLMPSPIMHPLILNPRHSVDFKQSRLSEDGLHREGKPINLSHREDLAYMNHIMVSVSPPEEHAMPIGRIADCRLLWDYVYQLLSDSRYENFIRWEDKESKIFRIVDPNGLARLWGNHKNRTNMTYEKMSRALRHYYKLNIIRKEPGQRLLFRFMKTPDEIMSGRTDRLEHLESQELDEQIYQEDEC
# Molecular target: T1, ELF3 (UniProt P78545)
# T1 sequence: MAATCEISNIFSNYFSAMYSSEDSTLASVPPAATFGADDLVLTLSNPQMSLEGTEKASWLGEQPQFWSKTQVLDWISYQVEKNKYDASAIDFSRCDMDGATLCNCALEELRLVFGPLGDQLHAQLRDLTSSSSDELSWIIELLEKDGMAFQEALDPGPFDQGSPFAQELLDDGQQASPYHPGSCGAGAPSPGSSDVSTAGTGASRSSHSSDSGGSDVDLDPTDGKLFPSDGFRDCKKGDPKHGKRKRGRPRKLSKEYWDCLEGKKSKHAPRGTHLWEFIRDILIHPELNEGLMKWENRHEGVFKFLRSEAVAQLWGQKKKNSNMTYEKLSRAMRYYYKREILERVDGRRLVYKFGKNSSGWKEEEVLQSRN
# Assay: DAPPL (digital affinity profiling via proximity ligation, sequencing)
# Details: 10 mM Tris-HCl pH 7.5, 50 mM NaCl, 1 mM DTT, 4% glycerol, room temperature, 30 min; GST-TFs on glutathione beads, 16-mer random dsDNA library, 0.1% …; high values mean tight binding; double strand, one strand shown; scale: fold enrichment (6-mer frequency, TF over GST control)
row,Sequence,binding signal
1,TAGACT,0.897
2,TTTTTT,1.33
3,GAAGAT,0.864
4,TCAACG,0.996
5,ACAAAG,0.912
6,ATAATA,1.15
7,TCATGA,1
8,GCCCGG,0.894
9,GACTAC,1.2
10,GGCTGC,0.755
11,TGTAAC,1.22
12,GATCTA,1.07
13,CGAAGT,0.924
14,CTCCGT,1.13
15,TGCAGC,0.958
16,TATGAT,1.09
17,ATTGGT,1.14
18,CGACAG,0.999
19,TTTCAT,1.11

# Molecular target: ETV7 (UniProt Q9Y603)
# Assay: as above
# Details: 10 mM Tris-HCl pH 7.5, 50 mM NaCl, 1 mM DTT, 4% glycerol, room temperature, 30 min; GST-TFs on glutathione beads, 16-mer random dsDNA library, 0.1% …; high values mean tight binding; double strand, one strand shown; scale: fold enrichment (6-mer frequency, TF over GST control)
row,Sequence,binding signal
1,CTCTCC,1.31
2,GGACCT,1.34
3,CACTTT,1.26
4,TAAGGG,0.965
5,ATATAT,1.29
6,ACTGAA,1.06
7,CCCCGT,0.89
8,TTCCCG,1.88
9,CTGTTG,1.05
10,TTGCTC,1.59
11,TGTCAA,0.939
12,TGCATA,1.23
13,TTTGGA,1.3
14,GTGTCC,1.22
15,ATCTAT,1.18
16,CGCCGC,1.11
17,CTACGT,1.35
18,AAGATC,1.08
19,AACTGT,0.931
20,TACAAA,1.11

# Random excerpt: two records from the list.
row,Sequence,binding signal
9,CTGTTG,1.05
8,TTCCCG,1.88

# Molecular target: ETV6 (UniProt P41212)
# Assay: as above
# Details: 10 mM Tris-HCl pH 7.5, 50 mM NaCl, 1 mM DTT, 4% glycerol, room temperature, 30 min; GST-TFs on glutathione beads, 16-mer random dsDNA library, 0.1% …; high values mean tight binding; double strand, one strand shown; scale: fold enrichment (6-mer frequency, TF over GST control)
row,Sequence,binding signal
1,TAGACT,0.898
2,TTTTTT,1.11
3,GAAGAT,0.943
4,TCAACG,0.974
5,ACAAAG,0.961
6,ATAATA,1.2
7,TCATGA,0.995
8,GCCCGG,0.88
9,GACTAC,1.11
10,GGCTGC,0.89
11,TGTAAC,1.2
12,GATCTA,0.947
13,CGAAGT,0.868
14,CTCCGT,1.16
15,TGCAGC,0.968
16,TATGAT,1.17
17,ATTGGT,1.13
18,CGACAG,0.875
19,TTTCAT,1.13

# — article PMC7862700
